From US6767715B2, “Nitroso compounds and their use as spin traps” (Randox Laboratories Ltd., priority 2000, dated 2004)

Assays:
[1] = Spin trapping of SO3− (horseradish peroxidase/H2O2/sulphite), ESR detection; settings: SO3− adduct
Description: (§1) ESR spectra were obtained using a prototype spectrometer (Jeol (U.K) Ltd., Welwyn Garden City, England) equipped with a TE011 cylindrical cavity. Samples were analysed at room temperature in a WG-LC-11 quartz flat cell (Wilmad-Glass, Buena, N.J.). In general the instrument parameters were: microwave frequency 9.2 GHz, microwave power 4 mW, centre field (CF) 336.7 mT, sweep width (SW) ±5 mT, number of data points 4095, modulation frequency 100 kHz. For the spin traps reacted with horseradish peroxidase/H2O2/sulphite: sweep time 200 s, time constraint 0.1 s, modulation width 0.05. For the spin traps reacted with the oxidant and NO; sweep time 150 s, time constraint 0.3 s, modulation width 0.2 mT. A JEOL ES-DM1 digital manganese oxide marker (0.03 mm of the glass tube inserted per unit on the dial setting) with a dial setting of 500 was used to ensure the reproducibility between samples and to identify the position of the signals in the microwave field.
Solutions of the spin traps DBNBS, DCNBS and DMNBS (40 mM) (25, 50, […], 110.75, 125 and 156.25 μl for final concentrations of 4, 8, 14.68, 17.72, 20 and 25 mM in PBS) were added to 8 μl horseradish peroxidase (91 μM in PBS), 8 μl K2SO3 (100 mM in water) and 12.5 μl H2O2 (5 mM in PBS). […] The reaction mixture was mixed thoroughly and analysed by ESR spectroscopy after 25 min incubation at room temperature. […]

[2] = Reaction of spin traps with oxidant in CAPD dialysate, ESR detection; settings: three-line signal
Description: as §1
Dialysate from a patient with renal failure on Continuous Ambulatory Peritoneal Dialysis (CAPD) was used for this study. […]
Solutions of 10 mM DBNBS and DCNBS (5, 8, 12, 25 and 30 μl for final concentrations of 0.5, 0.8, 1.2, 2.5 and 3.0 mM) were added to 60 μl of the dialysate. […] The reaction mixture was mixed thoroughly and analysed by ESR spectroscopy after 25 min incubation at room temperature.

Row | SMILES | line width of the ESR signal [1] [mT] | peak width of ESR signal [2] [mT]
1 | O=Nc1c(Br)cc(S(=O)(=O)[O-])cc1Br.[Na+] [DBNBS, 3,5-dibromo-4-nitrosobenzenesulphonate, sodium salt, reference compound] | 0.087 | 0.495
2 | O=Nc1c(Cl)cc(S(=O)(=O)[O-])cc1Cl.[Na+] [DCNBS, 3,5-Dichloro-4-nitrosobenzenesulphonate, Sodium Salt] | 0.085 | 0.306
